US8663642B2 (priority 2003, dated 2014)

Assay: general procedure: solution-phase peptide synthesis; DEPC/DIEA
Conditions: conjugation step

## MC-Val-Cit-PAB-MMAF-O-t-butyl ester
  conjugation yield: 71%
